Results as given in publication PMC6584500, “Small-molecule targeting of MUSASHI RNA-binding activity in acute myeloid leukemia” (Nature Communications, 2019).

Protein sequences, listed by entry. Tags and fused reporters are not part of them.
UniProt Q96DH6, whole entry F66A/F97A/R100A: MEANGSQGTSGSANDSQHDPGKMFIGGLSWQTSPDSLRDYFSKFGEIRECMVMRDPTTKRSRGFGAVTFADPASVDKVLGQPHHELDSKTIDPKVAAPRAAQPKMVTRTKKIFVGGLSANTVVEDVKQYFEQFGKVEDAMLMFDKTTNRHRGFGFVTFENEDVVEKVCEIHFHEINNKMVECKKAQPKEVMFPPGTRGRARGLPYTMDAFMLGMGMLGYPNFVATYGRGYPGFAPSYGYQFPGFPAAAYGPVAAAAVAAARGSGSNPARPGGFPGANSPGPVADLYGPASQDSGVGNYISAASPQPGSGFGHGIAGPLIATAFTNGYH

How the values were obtained:
[1] = target: MSI2 WT (Homo sapiens) (UniProt Q96DH6); experiment: fluorescence polarization; conditions: inhibited by Ro 08-2750 (IC50 2.7 uM, small molecule); C9 spacer; recombinant protein; protein details: GST, Flag; label: Cy3
[2] = target: MSI2 triple mutant F66A,F97A,R100A (Homo sapiens) (UniProt Q96DH6); experiment: MST; conditions: MST: 50 mM HEPES, 100 mM NaCl, 0.05% Tween-20, pH 7.4, RT; recombinant protein; protein details: GST, Flag

GUAGUAGU [8-nt MSI RNA oligo (FP probe)]
binding result [1]: binds

GUAGUAGUAGUAGUA [15-nt MSI RNA oligo]
Kd [2]: > 50 µM

For at least one entry, the source does not settle the construct or the ends of the probe. For some assays here: At least one verdict rests on a figure or table, not on a statement of the authors.
